From article PMC6436931, “Activation of the Endonuclease that Defines mRNA 3′ Ends Requires Incorporation into an 8-Subunit Core Cleavage and Polyadenylation Factor Complex” (Molecular Cell, 2019)
No constants are given. Whether binding was seen depends on the method and setting. Some binding calls cover weakened binding; strength is not graded here. Where a sequence is shown, tags or fusion partners need not be part of it.

T1: Pfs2-3C-SII (S. cerevisiae) (UniProt P42841)
T1 sequence: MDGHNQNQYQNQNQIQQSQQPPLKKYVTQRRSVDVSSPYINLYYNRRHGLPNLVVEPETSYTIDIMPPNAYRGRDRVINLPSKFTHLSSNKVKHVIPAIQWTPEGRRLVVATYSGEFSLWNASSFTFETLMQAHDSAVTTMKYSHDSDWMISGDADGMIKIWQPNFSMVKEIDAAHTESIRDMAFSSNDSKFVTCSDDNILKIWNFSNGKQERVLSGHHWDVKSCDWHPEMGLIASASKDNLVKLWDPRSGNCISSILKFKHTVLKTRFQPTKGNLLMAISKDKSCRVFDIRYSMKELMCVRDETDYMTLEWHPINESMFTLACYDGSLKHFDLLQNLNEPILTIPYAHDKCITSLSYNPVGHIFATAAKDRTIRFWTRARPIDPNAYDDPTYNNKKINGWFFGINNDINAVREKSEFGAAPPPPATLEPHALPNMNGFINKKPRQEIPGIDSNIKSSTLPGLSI

B1: Fip1 (protein, UniProt P45976 1-327)
chain: MSSSEDEDDKFLYGSDSELALPSSKRSRDDEADAGASSNPDIVKRQKFDSPVEETPATARDDRSDEDIYSDSSDDDSDSDLEVIISLGPDPTRLDAKLLDSYSTAATSSSKDVISVATDVSNTITKTSDERLITEGEANQGVTATTVKATESDGNVPKAMTGSIDLDKEGIFDSVGITTIDPEVLKEKPWRQPGANLSDYFNYGFNEFTWMEYLHRQEKLQQDYNPRRILMGLLSLQQQGKLNSANDTDSNLGNIIDNNNNVNNANMSNLNSNMGNSMSGTPNPPAPPMHPSFPPLPMFGSFPPFPMPGMMPPMNQQPNQNQNQNSK
B2: Mpe1 (untagged, in CPF_(core)) (protein, UniProt P35728 1-441)
chain: MSSTIFYRFKSQRNTSRILFDGTGLTVFDLKREIIQENKLGDGTDFQLKIYNPDTEEEYDDDAFVIPRSTSVIVKRSPAIKSFSVHSRLKGNVGAAALGNATRYVTGRPRVLQKRQHTATTTANVSGTTEEERIASMFATQENQWEQTQEEMSAATPVFFKSQTNKNSAQENEGPPPPGYMCYRCGGRDHWIKNCPTNSDPNFEGKRIRRTTGIPKKFLKSIEIDPETMTPEEMAQRKIMITDEGKFVVQVEDKQSWEDYQRKRENRQIDGDETIWRKGHFKDLPDDLKCPLTGGLLRQPVKTSKCCNIDFSKEALENALVESDFVCPNCETRDILLDSLVPDQDKEKEVETFLKKQEELHGSSKDGNQPETKKMKLMDPTGTAGLNNNTSLPTSVNNGGTPVPPVPLPFGIPPFPMFPMPFMPPTATITNPHQADASPKK
B3: Yth1-3C-8H (protein, UniProt Q06102 1-208)
chain: MSLIHPDTAKYPFKFEPFLRQEYSFSLDPDRPICEFYNSREGPKSCPRGPLCPKKHVLPIFQNKIVCRHWLRGLCKKNDQCEYLHEYNLRKMPECVFFSKNGYCTQSPDCQYLHIDPASKIPKCENYEMGFCPLGSSCPRRHIKKVFCQRYMTGFCPLGKDECDMEHPQFIIPDEGSKLRIKRDDEINTRKMDEEKERRLNAIINGEV
B4: Cft1 (protein, UniProt Q06632 1-1357)
chain: MNVYDDVLDATVVSHSLATHFTTSDYEELLVVRTNILSVYRPTRDGKLYLTDEFKFHGLITDIGLIPQKDSPLSCLLLCTGVAKISILKFNTLTNSIDTLSLHYYEGKFKGKSLVELAKISTLRMDPGSSCALLFNNDIIAFLPFHVNKNDDDEEEEDEDENIDDSELIHSMNQKSQGTNTFNKRKRTKLGDKFTAPSVVLVASELYEGAKNIIDIQFLKNFTKPTIALLYQPKLVWAGNTTISKLPTQYVILTLNIQPAESATKIESTTIAFVKELPWDLHTIVPVSNGAIIVGTNELAFLDNTGVLQSTVLLNSFADKELQKTKIINNSSLEIMFREKNTTSIWIPSSKSKNGGSNNDETLLLMDLKSNIYYIQMEAEGRLLIKFDIFKLPIVNDLLKENSNPKCITRLNATNSNKNMDLFIGFGSGNALVLRLNNLKSTIETREAHNPSSGTNSLMDINDDDDEEMDDLYADEAPENGLTTNDSKGTVETVQPFDIELLSSLRNVGPITSLTVGKVSSIDDVVKGLPNPNKNEYSLVATSGNGSGSHLTVIQTSVQPEIELALKFISITQIWNLKIKGRDRYLITTDSTKSRSDIYESDNNFKLHKGGRLRRDATTVYISMFGEEKRIIQVTTNHLYLYDTHFRRLTTIKFDYEVIHVSVMDPYILVTVSRGDIKIFELEEKNKRKLLKVDLPEILNEMVITSGLILKSNMCNEFLIGLSKSQEEQLLFTFVTADNQIIFFTKDHNDRIFQLNGVDQLNESLYISTYQLGDEIVPDPSIKQVMINKLGHDNKEEYLTILTFGGEIYQYRKLPQRRSRFYRNVTRNDLAITGAPDNAYAKGVSSIERIMHYFPDYNGYSVIFVTGSVPYILIKEDDSTPKIFKFGNIPLVSVTPWSERSVMCVDDIKNARVYTLTTDNMYYGNKLPLKQIKISNVLDDYKTLQKLVYHERAQLFLVSYCKRVPYEALGEDGEKVIGYDENVPHAEGFQSGILLINPKSWKVIDKIDFPKNSVVNEMRSSMIQINSKTKRKREYIIAGVANATTEDTPPTGAFHIYDVIEVVPEPGKPDTNYKLKEIFQEEVSGTVSTVCEVSGRFMISQSQKVLVRDIQEDNSVIPVAFLDIPVFVTDSKSFGNLLIIGDAMQGFQFIGFDAEPYRMISLGRSMSKFQTMSLEFLVNGGDMYFAATDADRNVHVLKYAPDEPNSLSGQRLVHCSSFTLHSTNSCMMLLPRNEEFGSPQVPSFQNVGGQVDGSVFKIVPLSEEKYRRLYVIQQQIIDRELQLGGLNPRMERLANDFYQMGHSMRPMLDFNVIRRFCGLAIDRRKSIAQKAGRHAHFEAWRDIINIEFSMRSLCQGK

Target: T1, Pfs2-3C-SII (S. cerevisiae)
Assay: co-purification (StrepTactin affinity, anion exchange, size exclusion chromatography); subunits co-expressed in Sf9 cells; complex captured by the one StrepII-tagged subunit, Mono Q 100-1000 mM NaCl gradient, Superose 6 Increase in 10 mM HEPES pH 7.9, 150 mM NaCl, 1.0 mM TCEP; SDS-PAGE; both purified

binding, binds:
B1
B2
B3
B4
